Measurements reported in PubChem BioAssay AID720505 (Drosophila RNAi Screening Center, 2013).

Test: 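Knock-downs that reduce calcium influx once internal stores are emptied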 (primary screen)
System: Drosophila S2R+ cells
Knock-down reagent: long dsRNA against Drosophila genes
Challenge: thapsigargin (2 µM) in calcium-free buffer to empty internal stores, then 2 mM calcium added back
Measurement: 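Stores emptied by 2 µM thapsigargin without calcium, then 2 mM calcium re-added; fluo-4 fluorescence followed by FLIPR in 384-well plates, per-well averaged endpoint, raw; two screen passes, some wells retested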
Scale: calcium signal and retest calcium signal: higher = more calcium entry after store depletion
Active means: 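About 1500 genes called as lowering calcium entry, by varying amounts, judged against per-plate control wells with STIM1 as positive and Rho1 as negative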
Meaning of the calls: active = called as lowering calcium entry; inactive = not called
In all, the deposit lists about 20,000 reagents; this is a random part of those that have a named target and a result. In the full data, about 2,100 (10%) were called active. 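Raw plate signals without normalisation; calls rest on control-based scores that were not deposited; replicate 2 separates called from uncalled poorly.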 A plus sign joins genes that one reagent is predicted to hit. The record does not give: the amount of reagent, the time to read-out.

| gene | amplicon | calcium signal, replicate 1 | calcium signal, replicate 2 | retest calcium signal, replicate 1 | retest calcium signal, replicate 2 | Call |
| --- | --- | --- | --- | --- | --- | --- |
| CG14760 (GeneID 35802) | DRSC06495 | 155 | 150 | – | – | inactive |
| Fatp (retired record) (GeneID 44227) | DRSC03054 | 73.7 | 96.3 | – | – | inactive |
| CG15657 (GeneID 37408) | DRSC04248 | 151 | 88 | – | – | inactive |
| CG18367 (GeneID 37255) | DRSC06545 | 57 | 63.4 | 176 | 183 | active |
| Reepl1 (GeneID 32103) | DRSC19418 | 90.5 | 121 | – | – | inactive |
| raskol (GeneID 32754) | DRSC19202 | 81.6 | 116 | – | – | inactive |
| raskol (GeneID 32754) | DRSC19731 | 89.6 | 122 | – | – | inactive |
| raskol (GeneID 32754) | DRSC19964 | 98.3 | 94.9 | – | – | inactive |
| raskol (GeneID 32754) | DRSC19967 | 65.1 | 70.4 | – | – | active |
| raskol (GeneID 32754) | DRSC21788 | 178 | 98.4 | – | – | inactive |
| CG7017 (GeneID 40213) | DRSC10762 | 68.3 | 101 | – | – | active |
| Jon66Ci (GeneID 38952) | DRSC10772 | 87.3 | 68 | – | – | inactive |
| Mfap1 (GeneID 38256) | DRSC08154 | 76.8 | 133 | – | – | active |
| CG30484 (GeneID 36534) | DRSC05457 | 123 | 132 | – | – | inactive |
| MED10 (GeneID 39777) | DRSC10474 | 75.5 | 136 | – | – | inactive |
| Rbp9 (GeneID 33498) | DRSC00416 | 104 | 105 | – | – | inactive |
| Rbp9 (GeneID 33498) | DRSC00779 | 102 | 271 | – | – | inactive |
| CG8745 (GeneID 39530) | DRSC11033 | 75.9 | 83.2 | – | – | inactive |
| CG8745 (GeneID 39530) | DRSC11034 | 78.7 | 66.9 | – | – | inactive |
| CG8745 (GeneID 39530) | DRSC22741 | 135 | 176 | – | – | inactive |
| CG12811 (GeneID 41229) | DRSC14549 | 105 | 80.6 | – | – | inactive |
| Cht7 + tRNA:Cys-GCA-1-4 + tRNA:Lys-CTT-1-13 | DRSC08021 | 6663 | 99 | – | – | inactive |
| CG33090 (GeneID 34835) | DRSC01908 | 106 | 101 | – | – | inactive |
| Os-C (GeneID 40942) | DRSC16778 | 105 | 136 | – | – | inactive |
| CG31038 (GeneID 43535) | DRSC15051 | 115 | 97.5 | – | – | inactive |
| CG31038 (GeneID 43535) | DRSC16326 | 138 | 149 | – | – | inactive |
| CG31038 (GeneID 43535) | DRSC16327 | 145 | 186 | – | – | inactive |
| CG42505 + CG42504 + CG31358 | DRSC15235 | 143 | 152 | – | – | inactive |
| CG42505 + CG42504 + CG31358 | DRSC15308 | 120 | 81.9 | – | – | inactive |
| CG42505 + CG42504 + CG31358 | DRSC15309 | 50.5 | 173 | – | – | active |
| Coq6 (GeneID 33777) | DRSC03040 | 166 | 280 | – | – | inactive |
| CG15882 (GeneID 32895) | DRSC19735 | 208 | 98.5 | – | – | inactive |
| CG32374 (GeneID 38848) | DRSC10986 | 92.1 | 98.8 | – | – | inactive |
| fok (GeneID 44380) | DRSC02103 | 120 | 83.4 | – | – | inactive |
| Pen (GeneID 34338) | DRSC03396 | 105 | 98.8 | – | – | inactive |
| Spred (GeneID 36643) | DRSC05976 | 122 | 172 | – | – | inactive |
| CG33722 + CG18749 | DRSC15386 | 92.5 | 125 | – | – | inactive |
| S-Lap5 (GeneID 36515) | DRSC06732 | 93.9 | 184 | – | – | inactive |
| Dbct (GeneID 32441) | DRSC19951 | 146 | 109 | – | – | inactive |
| CG16741 (GeneID 59232) | DRSC06622 | 151 | 92.7 | – | – | inactive |
| Rim (GeneID 42150) | DRSC16224 | 180 | 158 | – | – | inactive |
| Rim (GeneID 42150) | DRSC16225 | 125 | 146 | – | – | inactive |
| Rim (GeneID 42150) | DRSC16226 | 177 | 276 | – | – | inactive |
| Rim (GeneID 42150) | DRSC16227 | 156 | 144 | – | – | inactive |
| Rim (GeneID 42150) | DRSC22406 | 71.4 | 153 | – | – | inactive |
| slow (GeneID 38540) | DRSC08589 | 98.8 | 98.1 | – | – | inactive |
| slow (GeneID 38540) | DRSC08590 | 76.2 | 84.1 | – | – | inactive |
| CG8818 (GeneID 36375) | DRSC07275 | 122 | 136 | – | – | inactive |
| CG12268 (GeneID 42833) | DRSC14491 | 254 | 191 | – | – | inactive |
| DUBAI + Tmem18 | DRSC05344 | 94.8 | 142 | – | – | inactive |
| CG40245 (retired record) (GeneID 3354884) | DRSC21012 | 95.1 | 8744 | – | – | inactive |
| ND-B17 (GeneID 34925) | DRSC01981 | 115 | 90.6 | – | – | inactive |
| twy (GeneID 39330) | DRSC10562 | 46.1 | 88.6 | – | – | inactive |
| CG11000 (GeneID 40721) | DRSC12158 | 88.8 | 182 | – | – | inactive |
| Cirl (GeneID 35846) | DRSC07227 | 134 | 165 | – | – | inactive |
| Cirl (GeneID 35846) | DRSC21942 | 109 | 257 | – | – | inactive |
| Cirl (GeneID 35846) | DRSC23235 | 102 | 139 | – | – | inactive |
| CG14050 (GeneID 31218) | DRSC18594 | 80.5 | 104 | – | – | inactive |
| Ppt2 (GeneID 34564) | DRSC02786 | 88.8 | 106 | – | – | inactive |
| Pif1A + Pif1B | DRSC14142 | 105 | 155 | – | – | inactive |
| Pif1A + Pif1B | DRSC14380 | 101 | 115 | – | – | inactive |
| Pif1A + Pif1B | DRSC14381 | 115 | 189 | – | – | inactive |
| CG3285 (GeneID 33547) | DRSC00589 | 119 | 222 | – | – | inactive |
| CG12099 (GeneID 38181) | DRSC08253 | 94 | 99.8 | – | – | inactive |
| Larp4B (GeneID 38399) | DRSC08192 | 69.4 | 128 | – | – | inactive |
| Larp4B (GeneID 38399) | DRSC23201 | 97.8 | 157 | – | – | inactive |
| pns (GeneID 38178) | DRSC08598 | 98.4 | 138 | – | – | inactive |
| CG43106 (GeneID 12797866) | DRSC04279 | 83.4 | 158 | – | – | inactive |
| knrl (GeneID 40285) | DRSC11892 | 132 | 118 | – | – | inactive |
| knrl (GeneID 40285) | DRSC23245 | 86.9 | 123 | – | – | inactive |
| CG18449 (GeneID 35810) | DRSC06754 | 118 | 141 | – | – | inactive |
| vilya (GeneID 31264) | DRSC18588 | 132 | 175 | – | – | inactive |
| Grip163 (GeneID 39365) | DRSC10538 | 54.6 | 95 | – | – | active |
| Egfr (GeneID 37455) | DRSC03871 | 89.2 | 6672 | – | – | inactive |
| Egfr (GeneID 37455) | DRSC04613 | 174 | 83.1 | – | – | inactive |
| robo3 (GeneID 33314) | DRSC00374 | 188 | 161 | – | – | inactive |
| robo3 (GeneID 33314) | DRSC00375 | 217 | 161 | – | – | inactive |
| robo3 (GeneID 33314) | DRSC00684 | 157 | 176 | – | – | inactive |
| CG6163 (GeneID 39274) | DRSC10595 | 83.1 | 106 | – | – | inactive |
| Tsen34 + Trl | DRSC10014 | 114 | 152 | – | – | inactive |
| SmydA-9 (GeneID 31859) | DRSC17814 | 102 | 113 | – | – | inactive |
| CG9592 (GeneID 39585) | DRSC11078 | 90.2 | 201 | – | – | inactive |
| CG14275 (GeneID 34144) | DRSC02379 | 148 | 143 | – | – | inactive |

As entered above.
Value for Jon66Ci (GeneID 38952) [DRSC10772] under “Call”: inactive
Egfr (GeneID 37455) [DRSC03871], calcium signal, replicate 2 → 6672
Under “Call”, Larp4B (GeneID 38399) [DRSC23201] has inactive
Entry of CG31038 (GeneID 43535) [DRSC15051] in “Call”: inactive
CG30484 (GeneID 36534) [DRSC05457], calcium signal, replicate 1: 123
fok (GeneID 44380) [DRSC02103], calcium signal, replicate 1 = 120
